Source: PubChem BioAssay AID1259254 (NCATS, 2017)
Purpose: 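Finding genes that stop cells copying their DNA twice in one cycle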 (primary screen). System: human HCT116 colorectal cancer cells. Knock-down reagent: single siRNA against human genes. Timing: 3 days. Measured: 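Imaged Hoechst DNA stain sorts each cell into a cycle phase by DNA amount; per plate, G2 fraction set to 0% for non-targeting and 100% for GMNN siRNA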. Direction: G2 robust z-score and G2 cells, % of GMNN control: higher = more G2 cells, more excess DNA replication. Rule for the call: 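Active siRNAs have a G2 robust z of 5 or more median absolute deviations over the median, which in these data means about 38% or higher of GMNN control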.
In all, the deposit lists about 59,000 reagents; below is an unselected part. About 1,550 of all reagents (2.6%) were called active. 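G2 share is only a proxy for re-replication; each gene was hit by three separate siRNAs, and active genes were retested.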 Further read-outs or replicates are left out here. Not given: the amount of reagent.

no.	target	PubChem SID	G2 robust z-score	G2 cells, % of GMNN control	call
1	LOC107984399	SID160772506	-1.18	-5.35	inactive
2	LOC107984399	SID160772508	0.998	9.99	inactive
3	LOC107984399	SID160772509	-0.497	-0.527	inactive
4	ITGBL1	SID160722023	-0.0663	2.5	inactive
5	ITGBL1	SID160722024	-0.206	1.52	inactive
6	ITGBL1	SID160722025	-1.01	-4.17	inactive
7	PPP3R1	SID160723399	-0.856	-3.05	inactive
8	PPP3R1	SID160723505	1.98	16.9	inactive
9	PPP3R1	SID160723611	-0.856	-3.06	inactive
10	ADARB1	SID160713890	-1.27	-6	inactive
11	ADARB1	SID160713901	-0.648	-1.59	inactive
12	ADARB1	SID160713912	-0.782	-2.54	inactive
13	MXD4	SID160728844	0.611	7.27	inactive
14	MXD4	SID160728845	3.7	29	inactive
15	MXD4	SID160728846	-0.652	-1.62	inactive
16	GTF2IRD2	SID160751811	2.12	17.9	inactive
17	GTF2IRD2	SID160751812	0.105	3.71	inactive
18	GTF2IRD2	SID160751813	5.25	39.9	active
19	CXXC1	SID160739532	0.484	6.37	inactive
20	CXXC1	SID160739533	-0.42	0.0121	inactive
21	CXXC1	SID160739534	2.55	20.9	inactive
22	TRIT1	SID160742191	-0.672	-1.76	inactive
23	TRIT1	SID160742192	-0.431	-0.0682	inactive
24	TRIT1	SID160742194	0.139	3.95	inactive
25	CDH9	SID160740576	-0.661	-1.68	inactive
26	CDH9	SID160740587	-0.255	1.17	inactive
27	CDH9	SID160740597	2.22	18.6	inactive
28	EDN2	SID160732635	0.018	3.09	inactive
29	EDN2	SID160758084	1.27	11.9	inactive
30	EDN2	SID160758096	3.36	26.6	inactive
31	CDH5	SID160730397	0.0755	3.5	inactive
32	CDH5	SID160740450	0.435	6.03	inactive
33	CDH5	SID160740469	5.35	40.6	active
34	ROCK1	SID160715977	-0.0865	2.36	inactive
35	ROCK1	SID160715978	-1.47	-7.37	inactive
36	ROCK1	SID160731670	-1.12	-4.88	inactive
37	PTPN12	SID160719713	-0.666	-1.72	inactive
38	PTPN12	SID160719816	-0.23	1.35	inactive
39	PTPN12	SID160731616	-0.336	0.603	inactive
40	TWIST1	SID160718471	-0.74	-2.24	inactive
41	TWIST1	SID160718472	1.02	10.2	inactive
42	TWIST1	SID160718473	0.118	3.8	inactive
43	TKTL1	SID160719790	3.82	29.9	inactive
44	TKTL1	SID160719791	0.667	7.66	inactive
45	TKTL1	SID160731980	1.17	11.2	inactive
46	BATF	SID160728680	-0.604	-1.28	inactive
47	BATF	SID160728681	-1.39	-6.79	inactive
48	BATF	SID160730446	-0.431	-0.0616	inactive
49	CDO1	SID160741239	0.72	8.03	inactive
50	CDO1	SID160741249	0.492	6.43	inactive
51	CDO1	SID160741259	1.93	16.5	inactive
52	HSP90AA1	SID160775402	1.85	16	inactive
53	HSP90AA1	SID160775403	0.429	5.98	inactive
54	HSP90AA1	SID160775404	-0.826	-2.85	inactive
55	TBC1D15	SID160747984	0.72	8.03	inactive
56	TBC1D15	SID160747985	-1.17	-5.27	inactive
57	TBC1D15	SID160747986	-0.948	-3.7	inactive
58	HOXC6	SID160775225	-0.857	-3.06	inactive
59	HOXC6	SID160775226	-0.505	-0.586	inactive
60	HOXC6	SID160775227	0.81	8.67	inactive
61	MOCOS	SID160742794	0.906	9.34	inactive
62	MOCOS	SID160742795	0.387	5.69	inactive
63	MOCOS	SID160742796	-0.796	-2.63	inactive
64	OC90	SID160772669	-0.366	0.396	inactive
65	OC90	SID160772670	-0.657	-1.66	inactive
66	OC90	SID160772671	-0.361	0.424	inactive
67	DEFB119	SID160727970	-0.23	1.35	inactive
68	DEFB119	SID160727971	-0.596	-1.23	inactive
69	DEFB119	SID160727972	-0.761	-2.38	inactive

Just “G2 cells, % of GMNN control” (4 entries from above):
BATF [SID160730446]	-0.0616
CDO1 [SID160741239]	8.03
CDO1 [SID160741249]	6.43
CDO1 [SID160741259]	16.5
